Assay results: the supplement of paper PMC10338343
± gives the standard deviation. This is a selection; strong and weak results do not stand in their true shares. Many of these values have a large error.

Test system: EfPiwi piRISC loaded with piRNA #1 (26 nt)
Assay: pre-steady-state target cleavage rate (min^-1); guide: piRNA #1 5'p-UGAGGUAGUAGGUUGUAUAGUAUCCA; MIWI and MILI are mouse PIWI proteins and EfPiwi is from a freshwater sponge; tags in brackets are library labels; higher = faster piRNA-guided slicing of the target
Conditions: auxiliary factor: 500 nM Ephydatia muelleri Gtsf1
Summary of the method: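 Active affinity-purified piRISC (1 nM) loaded with one synthetic guide was mixed with a transcribed, DNA-blocked target RNA library (0.1 nM), with or without 500 nM GTSF1 partner protein, in HEPES–potassium acetate buffer at 33 °C for 0–8 or 0–960 min. Uncleaved targets were sequenced, normalised to depth and to weakly complementary targets, and pooled across three trials, with k3 capped at 0.0001 min^-1. The pre-steady-state cleavage rate was determined with a burst-and-steady-state fit.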

| Sequence | pre-steady-state target cleavage rate |
| --- | --- |
| GGAGUGGAUACUAUACAACCUACAACCUCA | 0.00468 ± 0.0018 |
| GGAGAGGAUACUAUACAGCCUACUACCUCA | 0.105 ± 0.04 |
| GGAGACCUAACUAUACAUCGUACUACCUCA | 0.00261 ± 0.0048 |
| GGAGAGGAUACAAUACAAGCUACUACCUCA | 0.0036 ± 0.0019 |
| GGAGACCUAUGAAUAGAAGCUACUACCUCA | 0.000313 ± 0.0094 |
| GGAGAGGAAACUAUACAACCUUCUACCUCA | 0.00297 ± 0.0027 |
| GGAGAGGAUACAUUACAACCUACUACCUCA | 0.007 ± 0.0035 |
| GGAGUGGAUAGUAUAGAACCUACUACCUCA | 0.00129 ± 0.0032 |
| GGAGACCUAUCUAUACAACCUACUUACCUCA | 0.00178 ± 0.0056 |
| GGAGACCUAUCUAUACAACCUACUAGCCUCA | 0.00166 ± 0.0056 |
| GGAGACCUAUCUAUACAACCUACUUGCUCA | 0.00118 ± 0.0058 |
| GGAGACCUUACUAAACAACCUACUACGUCA | 0.000834 ± 0.0065 |
| GGAGAGGAUACUAUUCAACCUACUUCCUCA | 0.00313 ± 0.0024 |
| GGAGACCUAUGUAUACAUCCUACUACGUCA | 0.000445 ± 0.0062 |
| GGAGACCAUUCUAUACAACGUACUACCUCA | 0.00402 ± 0.0025 |
| GGAGACCUAUCUAUACAACGUACUACCUCA | 0.00256 ± 0.0026 |
| GGAGUGGAUUCUAUACAACCUACUAGCUCA | 0.00173 ± 0.0029 |
| GGAGAGGAUACAAUACAACCUACAACCUCA | 0.00231 ± 0.0018 |
| GGAGACCAUACUAUAGAACCUACUACCUGA | 0.00135 ± 0.0022 |
| GGAGACCAUACUAAACUACCUACUACCUCA | 0.00391 ± 0.0039 |

Two records picked at random from the list so far, as already listed:

| Sequence | pre-steady-state target cleavage rate |
| --- | --- |
| GGAGAGGAUACAUUACAACCUACUACCUCA | 0.007 ± 0.0035 |
| GGAGAGGAUACAAUACAAGCUACUACCUCA | 0.0036 ± 0.0019 |

Carrying on.

| Sequence | pre-steady-state target cleavage rate |
| --- | --- |
| GGAGAGGAUACUAUACAUCCUACAACCUCA | 0.00339 ± 0.0022 |
| GGAGACCUAACUAUAGAACCUACUACGUCA | 0.00104 ± 0.0037 |
| GGAGACCAUACAAUACAACCUUCUACCUCA | 0.00301 ± 0.0031 |
| GGAGACGAUACUAAACAACCUACAACCUCA | 0.0012 ± 0.0025 |
| GGAGACCUAUCUAUACAACCUACUUCGUCA | 0.00161 ± 0.0053 |
| GGAGACCUAUGUAUACAACCUACUACCCCA | 0.00195 ± 0.0043 |
| GGAGACCUAUCAAUACAACCUACUACCUGA | 0.00251 ± 0.004 |
| GGAGACCUAUCUAUACAACCUACAACCUGA | 0.00249 ± 0.0057 |
| GGAGACGAUACAAUUCAACCUACUACCUCA | 0.0021 ± 0.0046 |
| GGAGACCAUACUAUAGAUCCUACUACCUCA | 0.00287 ± 0.0038 |
| GGAGACGAUACUAUACACCCUACUACCUCA | 0.011 ± 0.0045 |
| GGAGUGGAUACUAUACAACCACUACCUCA | 0.00771 ± 0.0031 |
| GGAGACCUUACUAUAGAACCUACUACGUCA | 0.000695 ± 0.0037 |
| GGAGAGGAUACUAUACAACCUACUACAUCA | 0.00573 ± 0.0027 |
| GGAGACCAUACUAUACCACCUACUACCUCA | 0.00807 ± 0.004 |
| GGAGACGAUACUAUGACAACCUACUACCUCA | 0.00896 ± 0.0044 |
| GGAGUGGAUACUUUACAACCUACUACCACA | 0.0011 ± 0.0026 |
| GGAGACCUUAGCUAUACAACCUACUACCUCA | 0.0684 ± 0.027 |
| GGAGUGGAUACUAUACUACCAACUACCUCA | 0.00428 ± 0.002 |
| GGAGACCUAAGUAUACAACCUUCUACCUCA | 0.00148 ± 0.0038 |
